From PubChem BioAssay (EPA / NIEHS)
The shares of active, inactive and inconclusive entries below differ from those in the screen. Potencies of inconclusive entries are doubtful fits and often do not repeat. Active and inactive are the calls of the source. Rule for the calls: active = hit-call score of the fitted dose curve at least 0.9, where 1 is the maximum; inconclusive = response in the unintended direction; inactive = score below 0.9.

By UniProt entry, the sequences of proteins in these tests, tags left out.
UniProt P19785, whole entry, looked up: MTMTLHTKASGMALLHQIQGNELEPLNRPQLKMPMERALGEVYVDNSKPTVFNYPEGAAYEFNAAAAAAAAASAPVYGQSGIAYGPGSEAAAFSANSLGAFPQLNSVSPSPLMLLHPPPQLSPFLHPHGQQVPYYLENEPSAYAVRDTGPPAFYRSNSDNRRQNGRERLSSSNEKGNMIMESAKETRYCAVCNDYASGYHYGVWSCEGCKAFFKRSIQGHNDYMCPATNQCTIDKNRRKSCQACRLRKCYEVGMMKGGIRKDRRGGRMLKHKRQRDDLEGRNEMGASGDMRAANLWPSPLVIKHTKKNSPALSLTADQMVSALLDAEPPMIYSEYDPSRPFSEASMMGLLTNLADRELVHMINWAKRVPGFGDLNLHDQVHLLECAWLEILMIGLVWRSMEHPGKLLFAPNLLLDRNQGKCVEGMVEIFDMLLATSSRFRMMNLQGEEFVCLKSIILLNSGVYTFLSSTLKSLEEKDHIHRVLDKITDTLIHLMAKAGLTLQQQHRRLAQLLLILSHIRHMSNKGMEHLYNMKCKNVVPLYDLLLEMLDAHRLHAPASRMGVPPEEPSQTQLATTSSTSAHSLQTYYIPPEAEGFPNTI

Target: mouse Estrogen Receptor alpha (Era), Esr1 (gene 13982) (UniProt P19785)
Assay: NVS_NR_mERa: NovaScreen (NVS) Nuclear Receptor Binding Assay for mouse Estrogen Receptor alpha (Era) (AID 2283378);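 note: hit means loss of bound radioligand signal relative to DMSO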
How it was run: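 Extracted mouse Era incubated with tritiated or iodinated radioligand plus test chemical, 18 h. Bound fraction separated on filters, counted by scintillation. DMSO = negative control/baseline; duplicate single-point at 25 uM, then concentration-response follow-up.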

SMILES	AC50	outcome
CN(C)c1ccc(C=O)cc1	inconclusive: 46.9 µM	–
CCCc1c(OCCCOc2ccc(OCC(=O)O)cc2)ccc(C(C)=O)c1O	–	inactive
Cc1cc(O)c(Cl)c(C)c1Cl	inconclusive: 0.0204 µM	–
CCCCCCCCCC/C=C/C1CC(=O)OC1=O (configuration not stated)	inconclusive: 25 µM	–
Nc1ccc(O)c([N+](=O)[O-])c1	inconclusive: 11.5 µM	–
Nc1ccc(Oc2ccc(N)c(N)c2)cc1	inconclusive: 2.13 µM	–
CCC(C)(C)c1cc(O)c(C(C)(C)CC)cc1O	–	inactive
CCN(CC)c1ccc2c(C)cc(=O)oc2c1	inconclusive: 46.7 µM	–
CC(=O)[C@H]1CC[C@H]2[C@@H]3CC=C4C[C@@H](O)CC[C@]4(C)[C@H]3CC[C@]12C	inconclusive: 25 µM	–
NNC(=O)OCc1ccccc1	inconclusive: 0.17 µM	–
COc1ccc(C(Cl)=C(c2ccc(OC)cc2)c2ccc(OC)cc2)cc1	active: 4.88 µM	–
Cc1[nH]c(=O)c(C#N)cc1-c1ccncc1	inconclusive: 44.4 µM	–
CC1=CC(=O)c2ccccc2C1=O	inconclusive: 1.39 µM	–
O=C1Cc2ccccc2N1c1c(Cl)cccc1Cl	inconclusive: 1.52 µM	–
Cc1cc(C)cc(O)c1	inconclusive: 6.82 µM	–
CNCCCC12CCC(c3ccccc31)c1ccccc12	inconclusive: 42.1 µM	–
O=C(c1cc(O)c(O)c(O)c1)c1ccc(O)c(O)c1O	inconclusive: 0.0608 µM	–
Nc1ccc2cc3ccccc3cc2c1	inconclusive: 8.38 µM	–
C=CCCCCCCCCC=O	inconclusive: 25 µM	–

SMILES	AC50	outcome
CCCCCCCCCCCC(=O)NCCCN(C)C	inconclusive: 25 µM	–
c1cc(N(CC2CO2)CC2CO2)ccc1Cc1ccc(N(CC2CO2)CC2CO2)cc1 (configuration not stated)	inconclusive: 9.16 µM	–
COC(OC)(C(=O)c1ccccc1)c1ccccc1	active: 6.88 µM	–
CC(C)(c1cc(Br)c(OCCO)c(Br)c1)c1cc(Br)c(OCCO)c(Br)c1	–	inactive
O=C(Nc1ccccc1)c1ccccc1O	inconclusive: 42.8 µM	–
COc1ccccc1NC(=O)c1cc2ccccc2cc1O	inconclusive: 38.9 µM	–
OCc1c[nH]c2ccccc12	inconclusive: 10.6 µM	–
C[C@H](CCC(=O)O)[C@H]1CC[C@H]2[C@@H]3CC[C@@H]4C[C@H](O)CC[C@]4(C)[C@H]3CC[C@]12C	inconclusive: 25 µM	–
CCCCCCCCCCCSCC(=O)O	inconclusive: 25 µM	–
Cc1cc(C2(c3cc(C)c(O)cc3C)OS(=O)(=O)c3ccccc32)c(C)cc1O	–	inactive
O=S1(=O)CC(Cl)(Cl)C(Cl)(Cl)C1	–	inactive
Oc1ccc(Cc2ccccc2O)cc1	inconclusive: 0.453 µM	–
CCOC(=O)c1nc(C(Cl)(Cl)Cl)n(-c2ccc(Cl)cc2Cl)n1	inconclusive: 42.6 µM	–
Nc1cc(Cl)c(-c2cc(Cl)c(N)cc2Cl)cc1Cl	active: 0.389 µM	–
O=C(COc1ccc(Cl)cc1)N1CCN(Cc2ccc3c(c2)OCO3)CC1	inconclusive: 25 µM	–
CCCCCCOC(=O)c1ccc(O)cc1	active: 3.82 µM	–
O=C(Nc1ccc(Cl)c(Cl)c1)c1cc(Cl)cc(Cl)c1O	inconclusive: 25 µM	–
COc1c2ccoc2cc2oc(=O)ccc12	inconclusive: 25 µM	–

Among those listed so far, these have nitrogen in an aromatic ring:
SMILES	AC50	outcome
Cc1[nH]c(=O)c(C#N)cc1-c1ccncc1	inconclusive: 44.4 µM	–
OCc1c[nH]c2ccccc12	inconclusive: 10.6 µM	–
CCOC(=O)c1nc(C(Cl)(Cl)Cl)n(-c2ccc(Cl)cc2Cl)n1	inconclusive: 42.6 µM	–
